Measured values reported in US9737478B2, “Treatment of malaria” (National Institutes of Health (NIH), U.S. Dept. of Health …, priority 2009, dated 2017).
“Also recorded” adds a separate entry of the source. At least one structure is not confirmed: it was looked up by name or label, or the drawing left a doubt.

What was measured:
[1] = test system: non-infected control mice; assay: Intravital microscopy of pial vessels (closed cranial window) in non-infected control mice; type: in vivo; details: nimodipine 4 mg/kg IP, n=3; compared with CM mice
[2] = test system: Plasmodium berghei ANKA (PbA); assay: Treatment of PbA-infected mice presenting clinical cerebral malaria (survival, motor score, parasitemia); type: in vivo, C57B1/6 mice

Structure (SMILES)	arteriolar blood flow / vascular response in uninfected control mice [1]	rate of parasite clearance, nimodipine versus vehicle groups ([2]; both groups given artemether 50 mg/kg IP)	motor scores at 48 and 72 hours versus artemether-vehicle ([2]; survivor mice, p=0.0402 (48 h), p=0.0238 (72 h))	parasitemia after artemether administration ([2]; mice treated with nimodipine or vehicle)
COCCOC(=O)C1=C(C)NC(C)=C(C(=O)OC(C)C)C1c1cccc([N+](=O)[O-])c1 (stereo not shown) [nimodipine]	increase; also recorded: similar	no difference	significantly higher	
CO[C@H]1O[C@@H]2O[C@@]3(C)CC[C@H]4[C@H](C)CC[C@@H]([C@H]1C)[C@@]24OO3 [artemether]				decreased fast
